Measurements from paper PMC5603566.
Results are given in words; binding and its absence hold for the method and conditions named. Binding seen in cells or lysates may run through a third protein. Some results given as binding are weak or reduced against the parent protein; the word gives no strength. Sequences can lack the tags named with a protein.

By UniProt entry, the sequences of proteins in these tests, tags left out.
UniProt Q8TDY2: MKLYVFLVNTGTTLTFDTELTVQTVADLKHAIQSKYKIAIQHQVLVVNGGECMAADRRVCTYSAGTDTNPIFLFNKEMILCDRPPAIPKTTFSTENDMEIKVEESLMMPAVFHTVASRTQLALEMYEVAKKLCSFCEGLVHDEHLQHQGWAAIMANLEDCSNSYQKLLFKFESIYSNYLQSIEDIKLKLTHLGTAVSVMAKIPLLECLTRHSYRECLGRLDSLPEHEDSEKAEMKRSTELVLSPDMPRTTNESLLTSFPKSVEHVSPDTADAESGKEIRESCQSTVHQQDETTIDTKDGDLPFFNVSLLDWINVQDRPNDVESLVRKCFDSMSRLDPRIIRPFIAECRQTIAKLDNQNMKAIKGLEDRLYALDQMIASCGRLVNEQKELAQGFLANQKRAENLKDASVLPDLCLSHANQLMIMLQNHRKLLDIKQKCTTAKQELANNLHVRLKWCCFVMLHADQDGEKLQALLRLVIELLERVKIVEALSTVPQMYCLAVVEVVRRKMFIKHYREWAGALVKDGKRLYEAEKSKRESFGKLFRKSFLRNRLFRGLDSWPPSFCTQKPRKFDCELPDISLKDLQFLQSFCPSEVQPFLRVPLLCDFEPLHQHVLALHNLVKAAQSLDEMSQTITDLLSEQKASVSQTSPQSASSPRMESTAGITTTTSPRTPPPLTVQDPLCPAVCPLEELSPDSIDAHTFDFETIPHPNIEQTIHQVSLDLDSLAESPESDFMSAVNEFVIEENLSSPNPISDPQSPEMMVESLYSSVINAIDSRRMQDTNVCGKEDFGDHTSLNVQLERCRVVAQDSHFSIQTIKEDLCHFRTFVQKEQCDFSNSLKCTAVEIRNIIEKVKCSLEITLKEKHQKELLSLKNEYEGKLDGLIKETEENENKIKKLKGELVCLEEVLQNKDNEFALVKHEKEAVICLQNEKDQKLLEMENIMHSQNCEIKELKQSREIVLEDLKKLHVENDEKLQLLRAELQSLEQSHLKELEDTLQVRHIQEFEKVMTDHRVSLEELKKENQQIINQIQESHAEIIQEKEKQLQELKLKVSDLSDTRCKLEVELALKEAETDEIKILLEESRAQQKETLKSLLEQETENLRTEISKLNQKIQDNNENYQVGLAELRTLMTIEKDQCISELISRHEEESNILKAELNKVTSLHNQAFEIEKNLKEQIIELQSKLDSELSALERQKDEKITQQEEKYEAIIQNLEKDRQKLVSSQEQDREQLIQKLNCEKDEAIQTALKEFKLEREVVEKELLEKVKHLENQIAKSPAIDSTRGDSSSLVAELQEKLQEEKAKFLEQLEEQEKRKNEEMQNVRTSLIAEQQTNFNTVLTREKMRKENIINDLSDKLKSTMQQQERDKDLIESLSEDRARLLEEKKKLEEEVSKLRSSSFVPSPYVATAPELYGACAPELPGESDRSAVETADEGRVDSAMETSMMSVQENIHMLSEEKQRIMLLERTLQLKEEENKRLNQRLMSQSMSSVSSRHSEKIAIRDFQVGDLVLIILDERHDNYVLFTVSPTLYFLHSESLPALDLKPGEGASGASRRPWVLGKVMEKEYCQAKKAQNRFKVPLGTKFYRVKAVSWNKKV

Biological target: T1, FLAG-ULK1 (mouse) (UniProt O70405)
T1 sequence: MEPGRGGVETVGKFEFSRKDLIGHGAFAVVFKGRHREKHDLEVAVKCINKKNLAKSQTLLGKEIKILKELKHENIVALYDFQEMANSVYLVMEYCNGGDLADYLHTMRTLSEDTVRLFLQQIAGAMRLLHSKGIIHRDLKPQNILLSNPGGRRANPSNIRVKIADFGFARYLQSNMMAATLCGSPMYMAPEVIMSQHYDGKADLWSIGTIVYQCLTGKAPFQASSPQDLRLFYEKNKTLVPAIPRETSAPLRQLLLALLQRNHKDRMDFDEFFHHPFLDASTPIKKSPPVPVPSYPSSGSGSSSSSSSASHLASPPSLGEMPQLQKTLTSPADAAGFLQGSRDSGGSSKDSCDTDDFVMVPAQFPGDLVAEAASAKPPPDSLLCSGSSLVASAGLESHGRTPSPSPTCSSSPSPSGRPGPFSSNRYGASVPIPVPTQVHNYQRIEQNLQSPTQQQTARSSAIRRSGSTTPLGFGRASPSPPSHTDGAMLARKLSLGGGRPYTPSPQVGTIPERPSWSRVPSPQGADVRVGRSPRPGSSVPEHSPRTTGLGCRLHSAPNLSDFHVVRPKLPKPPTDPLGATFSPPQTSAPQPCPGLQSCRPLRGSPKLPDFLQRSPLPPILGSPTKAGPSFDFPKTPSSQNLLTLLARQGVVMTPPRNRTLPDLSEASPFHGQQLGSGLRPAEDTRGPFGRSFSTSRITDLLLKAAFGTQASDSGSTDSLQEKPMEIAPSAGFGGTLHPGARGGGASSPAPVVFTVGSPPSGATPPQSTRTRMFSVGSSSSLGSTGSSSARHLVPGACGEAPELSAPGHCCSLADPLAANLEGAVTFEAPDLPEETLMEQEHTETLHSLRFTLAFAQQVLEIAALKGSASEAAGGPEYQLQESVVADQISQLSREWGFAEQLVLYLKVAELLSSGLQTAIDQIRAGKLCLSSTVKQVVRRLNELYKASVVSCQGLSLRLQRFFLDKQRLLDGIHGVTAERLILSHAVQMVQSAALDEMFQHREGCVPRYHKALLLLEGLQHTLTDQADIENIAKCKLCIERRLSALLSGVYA
Experiment: co-IP; FLAG-ULK1 co-expressed with FIP200 and Atg13 in HEK293T; purified from clarified lysate on anti-FLAG M2 affinity gel, eluted with 1 mg/ml FLAG peptide

FIP200 (from UniProt Q8TDY2 1-1594)
binding: binds
